In the supplement of paper PMC11006884:
Only a part is listed here, and it is no random draw.

The chains behind the UniProt entries cited, without tags or fusion partners. Where a name states a change or a piece, a line headed by the entry shows the natural chain unless it says otherwise.
UniProt Q9NYF8, whole entry, looked up: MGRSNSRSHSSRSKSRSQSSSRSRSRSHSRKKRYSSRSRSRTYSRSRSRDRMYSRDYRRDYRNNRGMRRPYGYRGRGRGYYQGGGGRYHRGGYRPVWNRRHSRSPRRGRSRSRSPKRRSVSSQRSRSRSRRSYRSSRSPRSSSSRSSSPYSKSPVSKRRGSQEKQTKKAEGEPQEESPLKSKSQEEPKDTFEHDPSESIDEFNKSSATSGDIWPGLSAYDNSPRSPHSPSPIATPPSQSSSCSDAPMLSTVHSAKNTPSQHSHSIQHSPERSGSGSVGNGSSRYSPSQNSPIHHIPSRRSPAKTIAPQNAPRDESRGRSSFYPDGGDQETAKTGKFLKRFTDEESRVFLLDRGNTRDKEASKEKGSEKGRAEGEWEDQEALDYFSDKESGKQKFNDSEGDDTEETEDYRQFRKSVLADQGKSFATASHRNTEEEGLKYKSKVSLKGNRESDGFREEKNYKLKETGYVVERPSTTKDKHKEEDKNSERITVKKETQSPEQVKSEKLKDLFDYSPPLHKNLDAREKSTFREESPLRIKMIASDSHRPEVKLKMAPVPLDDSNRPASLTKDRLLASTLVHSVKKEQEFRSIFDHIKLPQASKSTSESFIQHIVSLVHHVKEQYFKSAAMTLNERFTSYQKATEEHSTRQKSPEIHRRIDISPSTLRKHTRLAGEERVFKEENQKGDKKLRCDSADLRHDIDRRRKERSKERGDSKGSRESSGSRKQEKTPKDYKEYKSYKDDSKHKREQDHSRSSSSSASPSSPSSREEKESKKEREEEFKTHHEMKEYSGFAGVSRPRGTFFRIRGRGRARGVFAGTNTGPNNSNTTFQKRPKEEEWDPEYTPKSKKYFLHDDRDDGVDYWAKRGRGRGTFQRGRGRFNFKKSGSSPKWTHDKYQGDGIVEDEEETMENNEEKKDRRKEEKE
UniProt Q9NW64: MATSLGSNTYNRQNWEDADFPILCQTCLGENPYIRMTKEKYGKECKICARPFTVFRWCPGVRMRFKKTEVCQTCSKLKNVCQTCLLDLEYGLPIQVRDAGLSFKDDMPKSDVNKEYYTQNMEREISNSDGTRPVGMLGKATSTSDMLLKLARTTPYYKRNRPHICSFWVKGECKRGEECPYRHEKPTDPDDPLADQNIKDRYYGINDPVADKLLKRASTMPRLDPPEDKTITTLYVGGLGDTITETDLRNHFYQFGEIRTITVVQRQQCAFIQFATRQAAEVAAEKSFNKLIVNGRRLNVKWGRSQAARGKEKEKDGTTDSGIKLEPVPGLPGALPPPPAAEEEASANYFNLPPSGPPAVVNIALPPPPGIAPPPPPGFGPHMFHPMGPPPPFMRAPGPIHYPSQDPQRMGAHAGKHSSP
UniProt Q9UBC1: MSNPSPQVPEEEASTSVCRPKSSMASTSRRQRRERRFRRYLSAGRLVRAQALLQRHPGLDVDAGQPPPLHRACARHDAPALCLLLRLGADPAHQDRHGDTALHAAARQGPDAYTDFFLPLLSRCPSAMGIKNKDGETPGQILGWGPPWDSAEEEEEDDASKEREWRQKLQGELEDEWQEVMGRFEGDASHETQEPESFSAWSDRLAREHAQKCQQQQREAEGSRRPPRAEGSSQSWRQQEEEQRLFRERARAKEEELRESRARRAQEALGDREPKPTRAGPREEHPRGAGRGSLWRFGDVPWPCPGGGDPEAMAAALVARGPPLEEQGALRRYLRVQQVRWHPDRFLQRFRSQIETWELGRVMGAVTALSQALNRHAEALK
UniProt Q9UBT2: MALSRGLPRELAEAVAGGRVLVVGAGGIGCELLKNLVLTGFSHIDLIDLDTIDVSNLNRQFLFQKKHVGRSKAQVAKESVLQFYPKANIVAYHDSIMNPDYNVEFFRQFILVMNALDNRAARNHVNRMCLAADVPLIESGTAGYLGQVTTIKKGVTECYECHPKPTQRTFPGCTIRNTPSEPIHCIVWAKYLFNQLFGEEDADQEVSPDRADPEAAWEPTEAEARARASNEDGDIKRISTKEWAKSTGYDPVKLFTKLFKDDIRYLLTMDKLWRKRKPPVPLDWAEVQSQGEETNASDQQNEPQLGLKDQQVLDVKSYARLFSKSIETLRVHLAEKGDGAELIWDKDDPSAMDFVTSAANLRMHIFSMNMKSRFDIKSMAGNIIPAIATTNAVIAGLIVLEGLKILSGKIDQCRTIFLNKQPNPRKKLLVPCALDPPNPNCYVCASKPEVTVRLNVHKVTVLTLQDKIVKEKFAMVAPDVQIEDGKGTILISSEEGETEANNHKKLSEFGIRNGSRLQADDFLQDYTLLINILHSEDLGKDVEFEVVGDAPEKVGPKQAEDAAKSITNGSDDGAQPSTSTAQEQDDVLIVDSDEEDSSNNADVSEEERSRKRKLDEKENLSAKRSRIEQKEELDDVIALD
UniProt Q9UBB6: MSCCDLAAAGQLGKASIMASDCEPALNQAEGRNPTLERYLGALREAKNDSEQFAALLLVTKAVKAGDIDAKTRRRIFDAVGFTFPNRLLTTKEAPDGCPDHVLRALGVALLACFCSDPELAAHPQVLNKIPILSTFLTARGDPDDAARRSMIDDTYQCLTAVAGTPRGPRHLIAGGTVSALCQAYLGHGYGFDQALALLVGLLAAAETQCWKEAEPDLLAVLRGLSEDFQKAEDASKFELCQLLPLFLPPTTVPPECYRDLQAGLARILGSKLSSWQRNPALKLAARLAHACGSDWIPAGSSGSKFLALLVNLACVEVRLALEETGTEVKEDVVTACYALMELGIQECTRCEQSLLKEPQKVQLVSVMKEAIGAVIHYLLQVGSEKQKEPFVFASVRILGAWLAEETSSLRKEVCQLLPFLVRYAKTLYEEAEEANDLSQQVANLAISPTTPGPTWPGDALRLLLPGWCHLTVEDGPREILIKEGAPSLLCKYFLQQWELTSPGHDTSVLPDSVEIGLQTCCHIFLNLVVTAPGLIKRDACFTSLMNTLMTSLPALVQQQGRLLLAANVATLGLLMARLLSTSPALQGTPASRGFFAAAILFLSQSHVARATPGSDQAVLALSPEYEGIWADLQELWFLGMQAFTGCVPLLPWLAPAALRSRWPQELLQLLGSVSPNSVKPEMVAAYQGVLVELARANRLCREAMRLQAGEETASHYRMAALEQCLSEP
UniProt Q9P2E9: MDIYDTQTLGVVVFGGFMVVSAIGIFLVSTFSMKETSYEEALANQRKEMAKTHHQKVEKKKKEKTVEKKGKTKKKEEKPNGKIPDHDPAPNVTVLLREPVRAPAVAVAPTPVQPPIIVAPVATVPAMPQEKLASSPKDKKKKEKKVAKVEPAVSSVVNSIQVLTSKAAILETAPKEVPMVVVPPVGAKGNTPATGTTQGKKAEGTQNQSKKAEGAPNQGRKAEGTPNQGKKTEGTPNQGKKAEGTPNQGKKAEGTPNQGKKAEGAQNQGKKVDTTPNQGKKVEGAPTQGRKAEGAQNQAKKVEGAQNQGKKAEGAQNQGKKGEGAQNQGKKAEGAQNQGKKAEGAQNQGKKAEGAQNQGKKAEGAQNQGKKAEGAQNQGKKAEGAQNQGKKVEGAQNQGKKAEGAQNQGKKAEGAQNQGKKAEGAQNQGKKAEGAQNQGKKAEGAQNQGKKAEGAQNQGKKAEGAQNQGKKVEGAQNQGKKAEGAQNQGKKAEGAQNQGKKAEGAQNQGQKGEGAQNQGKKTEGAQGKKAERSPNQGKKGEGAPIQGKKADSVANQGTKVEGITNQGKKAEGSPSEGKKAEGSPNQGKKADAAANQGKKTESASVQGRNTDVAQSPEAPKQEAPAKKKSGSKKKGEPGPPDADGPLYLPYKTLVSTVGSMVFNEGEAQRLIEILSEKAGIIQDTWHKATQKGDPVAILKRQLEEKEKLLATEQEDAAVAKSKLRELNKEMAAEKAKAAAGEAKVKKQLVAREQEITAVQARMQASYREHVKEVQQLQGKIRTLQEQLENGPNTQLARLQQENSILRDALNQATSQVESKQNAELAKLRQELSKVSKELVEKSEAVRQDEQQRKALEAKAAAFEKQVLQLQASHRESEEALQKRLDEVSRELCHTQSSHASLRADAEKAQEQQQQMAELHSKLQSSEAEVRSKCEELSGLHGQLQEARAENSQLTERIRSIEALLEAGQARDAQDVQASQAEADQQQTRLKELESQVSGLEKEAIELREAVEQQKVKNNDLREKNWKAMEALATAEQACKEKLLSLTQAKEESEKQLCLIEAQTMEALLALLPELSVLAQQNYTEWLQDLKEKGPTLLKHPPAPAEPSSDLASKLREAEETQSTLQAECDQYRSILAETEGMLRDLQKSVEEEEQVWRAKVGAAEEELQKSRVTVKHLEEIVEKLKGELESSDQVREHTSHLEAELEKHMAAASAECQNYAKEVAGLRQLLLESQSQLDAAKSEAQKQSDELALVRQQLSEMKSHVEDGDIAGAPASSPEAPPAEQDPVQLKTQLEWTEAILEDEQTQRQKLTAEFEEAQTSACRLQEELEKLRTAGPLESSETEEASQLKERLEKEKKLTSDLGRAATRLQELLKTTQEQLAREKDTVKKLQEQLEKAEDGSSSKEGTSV
UniProt Q9NW13: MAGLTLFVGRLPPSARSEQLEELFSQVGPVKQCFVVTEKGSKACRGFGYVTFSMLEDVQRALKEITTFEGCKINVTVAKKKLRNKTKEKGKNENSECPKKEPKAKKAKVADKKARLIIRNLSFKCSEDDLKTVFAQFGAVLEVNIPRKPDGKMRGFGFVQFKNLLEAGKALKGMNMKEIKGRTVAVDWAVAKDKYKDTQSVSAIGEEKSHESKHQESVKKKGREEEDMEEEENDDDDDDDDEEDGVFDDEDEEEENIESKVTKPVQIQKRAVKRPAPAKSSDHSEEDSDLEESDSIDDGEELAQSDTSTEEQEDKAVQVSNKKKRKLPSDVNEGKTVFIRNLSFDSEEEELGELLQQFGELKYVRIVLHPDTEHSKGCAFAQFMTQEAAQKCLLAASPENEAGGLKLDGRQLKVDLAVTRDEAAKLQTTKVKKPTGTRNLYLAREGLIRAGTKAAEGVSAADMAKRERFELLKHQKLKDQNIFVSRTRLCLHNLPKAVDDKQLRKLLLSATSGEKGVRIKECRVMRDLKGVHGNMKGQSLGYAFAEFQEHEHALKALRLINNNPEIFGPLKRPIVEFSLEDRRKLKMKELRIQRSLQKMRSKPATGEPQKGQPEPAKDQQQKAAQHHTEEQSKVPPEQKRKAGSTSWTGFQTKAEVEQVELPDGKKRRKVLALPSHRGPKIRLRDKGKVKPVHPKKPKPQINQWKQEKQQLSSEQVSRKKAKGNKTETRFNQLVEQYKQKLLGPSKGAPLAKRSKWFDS
UniProt Q9UG63: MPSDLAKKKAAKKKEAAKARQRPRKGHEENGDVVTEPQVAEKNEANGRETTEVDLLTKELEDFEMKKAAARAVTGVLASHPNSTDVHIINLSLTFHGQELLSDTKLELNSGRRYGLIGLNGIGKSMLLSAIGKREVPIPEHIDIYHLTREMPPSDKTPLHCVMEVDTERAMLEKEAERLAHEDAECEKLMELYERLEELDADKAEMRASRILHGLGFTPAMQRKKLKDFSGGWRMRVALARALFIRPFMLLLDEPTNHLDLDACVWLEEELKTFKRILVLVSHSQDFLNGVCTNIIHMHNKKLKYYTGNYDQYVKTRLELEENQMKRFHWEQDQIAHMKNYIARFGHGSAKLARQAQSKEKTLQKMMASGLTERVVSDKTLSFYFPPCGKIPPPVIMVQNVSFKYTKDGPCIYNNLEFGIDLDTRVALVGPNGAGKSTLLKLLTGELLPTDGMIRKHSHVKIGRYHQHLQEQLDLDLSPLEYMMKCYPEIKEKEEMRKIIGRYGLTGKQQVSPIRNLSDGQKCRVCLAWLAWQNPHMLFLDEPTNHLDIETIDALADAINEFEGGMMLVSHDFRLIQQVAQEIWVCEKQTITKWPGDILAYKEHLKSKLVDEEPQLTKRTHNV
UniProt Q9NUQ8: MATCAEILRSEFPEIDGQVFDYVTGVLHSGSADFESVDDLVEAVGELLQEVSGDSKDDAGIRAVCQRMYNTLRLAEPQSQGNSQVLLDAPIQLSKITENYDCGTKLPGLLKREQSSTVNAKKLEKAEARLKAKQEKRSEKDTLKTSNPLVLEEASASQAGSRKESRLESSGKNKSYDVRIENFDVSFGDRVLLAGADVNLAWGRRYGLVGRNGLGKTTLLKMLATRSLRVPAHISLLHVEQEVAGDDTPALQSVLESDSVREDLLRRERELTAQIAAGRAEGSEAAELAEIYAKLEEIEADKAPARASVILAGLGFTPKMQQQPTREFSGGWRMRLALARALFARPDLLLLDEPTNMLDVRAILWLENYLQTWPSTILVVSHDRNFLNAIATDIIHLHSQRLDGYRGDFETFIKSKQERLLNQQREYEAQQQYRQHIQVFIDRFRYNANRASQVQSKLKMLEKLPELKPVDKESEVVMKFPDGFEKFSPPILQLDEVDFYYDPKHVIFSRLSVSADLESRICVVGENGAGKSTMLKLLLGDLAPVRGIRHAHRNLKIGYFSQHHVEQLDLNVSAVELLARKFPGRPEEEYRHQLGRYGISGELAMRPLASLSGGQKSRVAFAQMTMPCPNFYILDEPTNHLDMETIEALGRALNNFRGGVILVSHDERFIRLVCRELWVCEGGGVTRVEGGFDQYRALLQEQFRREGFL

Compound: COC(=O)C#Cc1ccccc1 [methyl 3-phenylpropiolate]
Assay: log2 ratio of iodoacetamide-alkyne labeling of the cysteine site, DMSO over compound (competition); higher = stronger covalent engagement of the cysteine by the compound, active = 1 or more
Details: 500 µM; treatment time 1 h; system: HEK293T cell lysate
Outline: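 The log2 competition ratio per cysteine is defined as mean reporter intensity in control channels over mean reporter intensity in compound channels. Lysate from HEK293T cells (2 mg/mL) received electrophile (500 µM) or vehicle for 1 h at ambient temperature, followed by iodoacetamide alkyne for 1 h. Samples were clicked to sCIP-TMT reagents, pooled, trypsin-digested overnight at 37 °C, streptavidin-enriched, acid-eluted and run on Orbitrap Eclipse LC-MS/MS with FAIMS, with quantification in FragPipe. Three replicates with duplicate channels were used, and any cysteine quantified in only one replicate was excluded.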

log2 ratio of iodoacetamide-alkyne labeling, inactive:
BCLAF1 C242 (UniProt Q9NYF8) -0.282
UniProt Q9NW64_C84 -0.264
UniProt Q9UBC1_C304 0.731
DDX56 C286 (UniProt Q9NY93) 0.51
BCLAF1 C688 (UniProt Q9NYF8) 0.524
UBA2 C30 (UniProt Q9UBT2) 0.198
THG1L C279 (UniProt Q9NWX6) 0.394
NCDN C22 (UniProt Q9UBB6) 0.523
ALKBH4 C204 (UniProt Q9NXW9) 0.207
RRBP1 C892 (UniProt Q9P2E9) 0.291
RBM28 C71 (UniProt Q9NW13) 0.107
ABCF2 C411 (UniProt Q9UG63) 0.306
ABCF3 C628 (UniProt Q9NUQ8) -0.243
RCC2 C42 (UniProt Q9P258) 0.344
MRPL39 C133 (UniProt Q9NYK5) 0.813
TRMT1 C639 (UniProt Q9NXH9) 0.233

log2 ratio of iodoacetamide-alkyne labeling, active:
LIMD1 C305 (UniProt Q9UGP4) 1.43
